# Primary screen of a compound library

From ChEMBL document CHEMBL3988442, “University of Dundee, Small-Polar-MMV Screening Library” (2021).

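Assay of Toxoplasma gondii numbers, read through their beta-galactosidase reporter with a colour substrate. Tested at 50 µM. The record gives no direction; the compounds picked for IC50 retests had high values, so higher reads as fewer parasites. Of about 18,000 compounds tested this way, about 170 (0.94%) reached 50% or more in at least one test.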

Each number is a percent effect as filed. The controls that fix the scale are not given in the record; negative values are as filed. The compounds are a random part of those screened.

NC(=O)CCS(=O)(=O)CCN1CCc2ccccc2C1 gave 2.704%.
Cc1nnc(SCC(=O)C(C)(C)C)[nH]1 gave 12.7%.
O=C(NCCCNCc1ccccc1)c1ccco1 gave -4.419%.
CC(C)c1noc(CN2CCSCC2)n1 gave -12.99%.
COC(=O)CCN(C)S(=O)(=O)c1ccccc1 gave 19.4%.
Fc1cccnc1OC1CCNCC1 gave -4.4%.
O=C1Nc2ccccc2C1C1CCNCC1 (configuration not stated) gave -8.851%.
CCC(CC)NC(=O)CN1CCCC(C)(CO)C1 (configuration not stated) gave 0.8931%.
COCCN(C)CCC(N)c1ccccc1 (configuration not stated) gave 5.036%.
Nc1ccc(CN2CCN(CC(F)(F)F)CC2)cn1 gave 4.815%.
CC1CCN(CCNC(=O)c2cnccn2)CC1 gave 19.69%.
CCC(NC(=O)CCSC)c1ncnn1C (configuration not stated) gave 5.988%.
NCc1nnc(N)o1 gave 7.424%.
CC(CNC(=O)c1ccc(Cl)cn1)Cn1ccnc1 (configuration not stated) gave -0.4294%.
CNC(=O)c1cccc(NCCN2CCCC(C)C2)n1 (configuration not stated) gave 12.28%.
CCN(CC(C)(C)O)C(=O)Cc1cccc(OC)c1 gave 8.563%.
CCOCC1CCN(C(=O)c2ccc(F)c(O)c2)CC1 gave 10.55%.
Cn1nnc(CNC(=O)C2CSc3ccccc3O2)n1 (configuration not stated) gave -4.318%.
CCOC(=O)c1cnc(C(=O)Nc2nncs2)c(Cl)c1 gave -18.39%.
O=S1(=O)CCC(NC2CCNCC2)C1 (configuration not stated) gave 0.6188%.
CCC(C)NC(=O)c1cnn2cccnc12 (configuration not stated) gave -2.512%.
CCNCc1cccc(OCC(=O)NCC)c1 gave 6.143%.
CCCN1CCC(NC(=O)c2ccc(O)cn2)C1 (configuration not stated) gave -14.58%.
CCN1CCOC(C(=O)NCCOC)C1 (configuration not stated) gave 5.195%.
CCO[C@H]1CN(C)C[C@@H]1NC(=O)c1cnn(C(C)C)c1 gave 1.515%.
CC(C)(C)OC(=O)N[C@@H]1CCCNC1 gave -9.099%.
Cc1nnc(CNC(=O)Nc2ccc(F)cc2)o1 gave -6.078%.
O=C(NC1CN(C(=O)c2cccc(Br)c2F)C1)C1CC1 gave 0.5674%.
CC(C)c1nccn1CCCNC(=O)c1cnco1 gave -0.648%.
Cn1nccc1C(=O)NCC(C)(O)c1ccccc1Cl (configuration not stated) gave 25.68%.
O=C(NCCCNCc1ccccc1)c1ccccn1 gave -0.1272%.
CC1(C#N)CCNC1 (configuration not stated) gave 12.97%.
O=S(=O)(CCN1CCC[C@H]1CO)c1ccccc1 gave 10.58%.
O=C(NCCn1cncn1)c1cccc2c1OCCO2 gave -2.828%.
COc1ccc(CCC(=O)NCCNC(C)=O)cc1 gave 21.36%.
CC(=O)NCc1ccc(OC2CCN(C)CC2)cc1 gave -8.725%.
COc1ccc(Cl)cc1NC(=O)NC1CCS(=O)(=O)C1 (configuration not stated) gave -8.559%.
CN(C)C(CNS(=O)(=O)c1c[nH]cn1)C1CCCCC1 (configuration not stated) gave 0.4723%.
COC[C@@H]1CCCN1Cc1cccc(OCC(N)=O)c1 gave -2.139%.
COCCNc1nc(-c2ccc(S(N)(=O)=O)cc2)cs1 gave 33.23%.
Cc1nnc(C2COCCN2)o1 (configuration not stated) gave 2.345%.
CC(C)(C)C(=O)CCN1CCCCC1 gave 28.4%.
O=C(Nc1ncccn1)c1cccnc1 gave -0.6432%.
CC(C)(C)OC(=O)NCCC1CCCNC1 (configuration not stated) gave 2.048%.
CN(C)C(=O)CNc1ccc(OC(C)(C)C)cc1 gave -5.158%.
COC(C)(CN)c1ccccc1 (configuration not stated) gave -18.76%.
CCN(C1CCN(c2ccccn2)CC1)S(C)(=O)=O gave 5.517%.
CN(C)C(=O)CSCC(=O)NCc1ccc(Cl)cc1 gave -3.715%.
CC(C)N(C)C(=O)CN1CC(Oc2ccc(F)cc2)C1 gave -13.53%.
O=C1CC(C(=O)N2CCCC3(CCCCC3)C2)CCN1 (configuration not stated) gave 2.273%.
CC1CCCCN1CC(=O)N1CCN(S(C)(=O)=O)CC1 (configuration not stated) gave -13.43%.
CCCC(N)C(=O)N1CCN(C2CCCCC2)CC1 (configuration not stated) gave 8.152%.
Cc1ccc(CN2CCOC(CCO)C2)c(F)c1 (configuration not stated) gave 1.605%.
COc1ccccc1NC(=O)NC(C)C gave 3.272%.
Cc1[nH]c(=O)c(C#N)c(C)c1CCC(=O)NC(C)C gave -7.621%.
N#Cc1ccc(C(=O)NCC2CC2)cc1 gave -3.427%.